Measured values published in PMC9980915, “MYCMI-7: A Small MYC-Binding Compound that Inhibits MYC: MAX Interaction and Tumor Growth in a MYC-Dependent Manner” (Cancer Research Communications, 2022).
Results are given in words; binding and its absence hold for the method and conditions named. Binding seen in cells or lysates may run through a third protein. Some entries that bind do so weakly or less than the wild type.

Sequences of proteins named here, by UniProt entry; tags and fusion partners are left off.
UniProt P05412: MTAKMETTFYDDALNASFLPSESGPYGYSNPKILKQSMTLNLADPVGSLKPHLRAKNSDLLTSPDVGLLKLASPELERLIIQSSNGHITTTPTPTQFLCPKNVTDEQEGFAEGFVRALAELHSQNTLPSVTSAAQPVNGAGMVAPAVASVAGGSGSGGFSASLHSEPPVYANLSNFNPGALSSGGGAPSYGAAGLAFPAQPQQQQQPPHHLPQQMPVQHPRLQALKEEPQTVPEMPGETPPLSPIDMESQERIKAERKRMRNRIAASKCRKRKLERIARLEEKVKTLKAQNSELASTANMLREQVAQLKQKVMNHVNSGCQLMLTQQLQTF

Biological target: endogenous JUN (human (endogenous in MCF7)) (UniProt P05412)
Experiment: proximity ligation; in situ PLA (Duolink) on methanol-fixed MCF7 cells, endogenous proteins; DMSO or 5 μmol/L MYCMI-7 for 24 h; dots per cell counted

- binding: binds
B1: endogenous FRA1 (protein, UniProt P15407 1-271)
chain: MFRDFGEPGPSSGNGGGYGGPAQPPAAAQAAQQKFHLVPSINTMSGSQELQWMVQPHFLGPSSYPRPLTYPQYSPPQPRPGVIRALGPPPGVRRRPCEQISPEEEERRRVRRERNKLAAAKCRNRRKELTDFLQAETDKLEDEKSGLQREIEELQKQKERLELVLEAHRPICKIPEGAKEGDTGSTSGTSSPPAPCRPVPCISLSPGPVLEPEALHTPTLMTTPSLTPFTPSLVFTYPSTPEPCASAHRKSSSSSGDPSSDPLGSPTLLAL
